Article PMC7710356, “RNF41 regulates the damage recognition receptor Clec9A and antigen cross-presentation in mouse dendritic cells” (eLife, 2020)
Numbering of substitutions follows the chain as printed. Results are given in words; binding and its absence hold for the method and conditions named. Binding seen in cells or lysates may run through a third protein. A result given as binding can be weak or reduced; the word gives no strength. One block for each binder: values may come before it.

By UniProt entry, the sequences of proteins in these tests, tags left out. Where a name states a change or a piece, a line headed by the entry shows the natural chain unless it says otherwise.
UniProt Q8BRU4: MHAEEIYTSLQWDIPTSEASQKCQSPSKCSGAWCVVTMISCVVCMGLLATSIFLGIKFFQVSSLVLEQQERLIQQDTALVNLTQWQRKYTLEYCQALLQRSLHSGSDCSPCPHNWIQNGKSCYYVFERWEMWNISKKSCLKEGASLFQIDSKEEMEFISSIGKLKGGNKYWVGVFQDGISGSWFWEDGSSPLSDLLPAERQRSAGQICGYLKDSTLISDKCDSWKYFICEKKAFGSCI

Columns and labels:
[1] = biological target: Clec9A (endogenous, mouse cDC1) (mouse (endogenous in MutuDC 1940 and spleen cDC1)); experiment: proximity ligation; Duolink PLA on fixed, permeabilized MutuDC 1940 (and primary spleen cDC1 for RNF41); mouse anti-Clec9A serum against the extracellular domain with rabbit antibody to the partner; steady state, and after culture with dead CHO-K1 cells (4 or 18 hr) and/or MG132 (5 μM)
[2] = biological target: FLAG-tagged full length mouse Clec9A (mClec9A-FLAG) (mouse) (UniProt Q8BRU4); experiment: co-IP; 293F cells co-transfected with mClec9A-FLAG and RNF41, RNF41-ΔRING, Ub-Myc or vector; lysis in 1% Triton X-100, 150 mM NaCl, 1 mM EDTA, 50 mM Tris pH 6.0-7.5; IP with anti-FLAG M2 affinity gel; western blot

B1: Calnexin (endogenous, MutuDC 1940) (protein, UniProt P35564 21-591)
chain: HDGHDDDAIDIEDDLDDVIEEVEDSKSKSDASTPPSPKVTYKAPVPTGEVYFADSFDRGSLSGWILSKAKKDDTDDEIAKYDGKWEVDEMKETKLPGDKGLVLMSRAKHHAISAKLNKPFLFDTKPLIVQYEVNFQNGIECGGAYVKLLSKTAELSLDQFHDKTPYTIMFGPDKCGEDYKLHFIFRHKNPKTGVYEEKHAKRPDADLKTYFTDKKTHLYTLILNPDNSFEILVDQSVVNSGNLLNDMTPPVNPSREIEDPEDRKPEDWDERPKIADPDAVKPDDWDEDAPSKIPDEEATKPEGWLDDEPEYIPDPDAEKPEDWDEDMDGEWEAPQIANPKCESAPGCGVWQRPMIDNPNYKGKWKPPMIDNPNYQGIWKPRKIPNPDFFEDLEPFKMTPFSAIGLELWSMTSDIFFDNFIISGDRRVVDDWANDGWGLKKAADGAAEPGVVLQMLEAAEERPWLWVVYILTVALPVFLVILFCCSGKKQSNAMEYKKTDAPQPDVKDEEGKEEEKNKRDEEEEEEKLEEKQKSDAEEDGVTGSQDEEDSKPKAEEDEILNRSPRNRKPRRE
binding [1]: binds

B2: Erlin2 (endogenous, 293F cells) (protein, UniProt O94905 1-339)
chain: MAQLGAVVAVASSFFCASLFSAVHKIEEGHIGVYYRGGALLTSTSGPGFHLMLPFITSYKSVQTTLQTDEVKNVPCGTSGGVMIYFDRIEVVNFLVPNAVYDIVKNYTADYDKALIFNKIHHELNQFCSVHTLQEVYIELFDQIDENLKLALQQDLTSMAPGLVIQAVRVTKPNIPEAIRRNYELMESEKTKLLIAAQKQKVVEKEAETERKKALIEAEKVAQVAEITYGQKVMEKETEKKISEIEDAAFLAREKAKADAECYTAMKIAEANKLKLTPEYLQLMKYKAIASNSKIYFGKDIPNMFMDSAGSVSKQFEGLADKLSFGLEDEPLETATKEN
binding [2]: binds

B3: Erlin1 (endogenous, 293F cells) (protein, UniProt O75477 1-348)
chain: MNMTQARVLVAAVVGLVAVLLYASIHKIEEGHLAVYYRGGALLTSPSGPGYHIMLPFITTFRSVQTTLQTDEVKNVPCGTSGGVMIYIDRIEVVNMLAPYAVFDIVRNYTADYDKTLIFNKIHHELNQFCSAHTLQEVYIELFDQIDENLKQALQKDLNLMAPGLTIQAVRVTKPKIPEAIRRNFELMEAEKTKLLIAAQKQKVVEKEAETERKKAVIEAEKIAQVAKIRFQQKVMEKETEKRISEIEDAAFLAREKAKADAEYYAAHKYATSNKHKLTPEYLELKKYQAIASNSKIYFGSNIPNMFVDSSCALKYSDIRTGRESSLPSKEALEPSGENVIQNKESTG
binding [2]: binds

The next lines start with the values.

binding [1]: binds
B4: RNF41 (endogenous, mouse cDC1) (enzyme, UniProt Q8BH75 1-317)
chain: MGYDVTRFQGDVDEDLICPICSGVLEEPVQAPHCEHAFCNACITQWFSQQQTCPVDRSVVTVAHLRPVPRIMRNMLSKLQIACDNAVFGCSAVVRLDNLMSHLSDCEHNPKRPVTCEQGCGLEMPKDELPNHNCIKHLRSVVQQQQSRIAELEKTSAEHKHQLAEQKRDIQLLKAYMRAIRSVNPNLQNLEETIEYNEILEWVNSLQPARVTRWGGMISTPDAVLQAVIKRSLVESGCPASIVNELIENAHERSWPQGLATLETRQMNRRYYENYVAKRIPGKQAVVVMACENQHMGDDMVQEPGLVMIFAHGVEEI

binding [2]: binds
B5: RNF41 full-length (mammalian expression construct in pcDNA3.1+) (enzyme, UniProt Q9H4P4 1-317)
chain: B4 chain with S147T

binding [1]: binds
B6: Erlin2 (endogenous, MutuDC 1940) (protein, UniProt Q8BFZ9 1-340)
chain: MAQLGAVVAVASSFFCASLFSAVHKIEEGHIGVYYRGGALLTSTSGPGFHLMLPFITSYKSVQTTLQTDEVKNVPCGTSGGVMIYFDRIEVVNFLVPNAVYDIVKNYTADYDKALIFNKIHHELNQFCSVHTLQEVYIELFDQIDENLKLALQQDLTSMAPGLVIQAVRVTKPNIPEAIRRNYELMESEKTKLLIAAQKQKVVEKEAETERKKALIEAEKVAQVAEITYGQKVMEKETEKKISEIEDAAFLAREKAKADAECYTALKIAEANKLKLTPEYLQLMKYKAIASNSKIYFGKDIPNMFMDSAGGLGKQFEGLSDDKLGFGLEDEPLEAPTKEN
